Source: PubChem BioAssay AID743121 (NCATS, 2013)

Test: 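Knock-downs that sensitise breast cancer cells to camptothecin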 (primary screen)
Cells: MDA-MB-231 cells, a human breast cancer line
Reagents: single siRNA against human genes, 20 nM siRNA (0.8 pmol per well)
Duration: 120 h (drug added 48 h after transfection, read 72 h later)
Challenge: camptothecin 20 nM (about EC30) for 72 h; vehicle 0.1% DMSO in parallel plates
Measured: 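CellTiter-Glo ATP signal, scaled to control siRNA as percent viability; sensitisation given as log2 of untreated divided by camptothecin-treated viability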
Scale: log2 vehicle/camptothecin viability: higher = stronger sensitisation to camptothecin; viability with camptothecin and viability without drug: higher = more viable cells
Hit rule: 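Each gene scored by redundant siRNA activity (RSA) over its individual siRNA ratios; a gene is called active at p < 0.001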
Here is a random part of about 26,000 reagents tested. In the full data, 167 (0.63%) got an active call. 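Calls are per gene from RSA p-values that are not deposited; an individual active-marked siRNA can sensitise only weakly.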 The numbers tell different reagents against one gene apart.

target gene | siRNA no. | log2 vehicle/camptothecin viability | viability with camptothecin (% of control) | viability without drug (% of control) | outcome
PHF23 | 1 | -0.16 | 85.4 | 76.4 | inactive
PHF23 | 2 | -0.431 | 70.6 | 52.4 | inactive
PHF23 | 3 | -0.0621 | 79.6 | 76.2 | inactive
CD160 | 1 | -0.607 | 56.9 | 37.4 | inactive
CD160 | 2 | -0.264 | 78.5 | 65.4 | inactive
CD160 | 3 | 0.215 | 86.3 | 100 | inactive
CD160 | 4 | -0.172 | 37 | 32.8 | inactive
FFAR2 | 1 | -0.568 | 101 | 67.9 | inactive
FFAR2 | 2 | 0.0166 | 63.7 | 64.4 | inactive
FFAR2 | 3 | -0.168 | 96.3 | 85.7 | inactive
FFAR2 | 4 | -0.0242 | 94.3 | 92.7 | inactive
PRKAG1 | 1 | -0.0382 | 95 | 92.5 | inactive
PRKAG1 | 2 | -0.057 | 71.8 | 69 | inactive
PRKAG1 | 3 | -0.294 | 74.2 | 60.5 | inactive
PRKAG1 | 4 | -0.262 | 77.2 | 64.4 | inactive
AGXT2 | 1 | 0.0864 | 78.6 | 83.5 | inactive
AGXT2 | 2 | -0.396 | 59 | 44.8 | inactive
AGXT2 | 3 | -0.228 | 75.1 | 64.2 | inactive
PPP2R5B | 1 | -0.134 | 95.6 | 87.1 | inactive
PPP2R5B | 2 | 0.671 | 6.5 | 10.4 | inactive
PPP2R5B | 3 | -0.517 | 75.6 | 52.9 | inactive
PPP2R5B | 4 | 0.117 | 104 | 113 | inactive
NFKB1 | 1 | 0.139 | 62.8 | 69.1 | inactive
NFKB1 | 2 | 0.571 | 25.3 | 37.5 | inactive
NFKB1 | 3 | 0.0805 | 96.7 | 102 | inactive
CYP2W1 | 1 | -0.115 | 46.1 | 42.6 | inactive
CYP2W1 | 2 | -0.136 | 110 | 99.9 | inactive
CYP2W1 | 3 | 0.0309 | 60 | 61.3 | inactive
CYP2W1 | 4 | -0.117 | 104 | 95.4 | inactive
CERK | 1 | 0.376 | 67.5 | 87.6 | inactive
CERK | 2 | -0.196 | 35.5 | 31 | inactive
CERK | 3 | -0.57 | 95.5 | 64.3 | inactive
CERK | 4 | -0.3 | 111 | 90.3 | inactive
MAP7 | 1 | -0.039 | 77.4 | 75.3 | inactive
MAP7 | 2 | -0.29 | 77.3 | 63.2 | inactive
MAP7 | 3 | -0.207 | 92.5 | 80.1 | inactive
MAP7 | 4 | -0.496 | 102 | 72 | inactive
PTPN5 | 1 | -0.468 | 93.9 | 67.9 | inactive
PTPN5 | 2 | -0.375 | 101 | 78 | inactive
PTPN5 | 3 | -0.471 | 102 | 73.7 | inactive
PTPN5 | 4 | -0.404 | 40.1 | 30.3 | inactive
CA6 | 1 | 0.11 | 99.7 | 108 | inactive
CA6 | 2 | 0.232 | 64.2 | 75.4 | inactive
CA6 | 3 | -0.441 | 80.1 | 59 | inactive
CA6 | 4 | -0.142 | 96.9 | 87.8 | inactive
PLA2G5 | 1 | -0.0499 | 86 | 83.1 | inactive
PLA2G5 | 2 | -0.187 | 101 | 88.9 | inactive
PLA2G5 | 3 | 0.014 | 94.6 | 95.5 | inactive
PLA2G5 | 4 | -0.523 | 49 | 34.1 | inactive
BAIAP3 | 1 | -0.0353 | 45.7 | 44.6 | inactive
BAIAP3 | 2 | 0.769 | 16.9 | 28.9 | inactive
BAIAP3 | 3 | -0.197 | 72.6 | 63.3 | inactive
BAIAP3 | 4 | -0.145 | 89.5 | 80.9 | inactive
IL18BP | 1 | -0.575 | 115 | 77.4 | inactive
IL18BP | 2 | -0.556 | 73.5 | 50 | inactive
IL18BP | 3 | -0.0288 | 68.9 | 67.5 | inactive
IL18BP | 4 | 0.19 | 80.6 | 91.9 | inactive
H2AX | 1 | -0.638 | 79.3 | 51 | inactive
H2AX | 2 | -0.364 | 34.3 | 26.6 | inactive
H2AX | 3 | -0.204 | 106 | 92.2 | inactive
ITGB8 | 1 | -0.297 | 99.3 | 80.8 | inactive
ITGB8 | 2 | -0.176 | 74.5 | 65.9 | inactive
ITGB8 | 3 | 0.14 | 89.8 | 99 | inactive
ITGB8 | 4 | -0.175 | 113 | 100 | inactive
ALDH7A1 | 1 | -0.374 | 40.3 | 31.1 | inactive
ALDH7A1 | 2 | -0.393 | 67.3 | 51.2 | inactive
ALDH7A1 | 3 | -0.465 | 112 | 81.4 | inactive
F11 | 1 | -0.13 | 69.9 | 63.9 | inactive
F11 | 2 | -0.128 | 94.3 | 86.3 | inactive
F11 | 3 | -0.19 | 98.8 | 86.6 | inactive
F11 | 4 | -0.0547 | 93 | 89.5 | inactive
